Data: patent US9453062B2 (Beijing Hanmi Pharmaceutical Co., Ltd., priority 2011, dated 2016)
One purity is given for all peptides; the source may state it once.

Assay: general procedure: Fmoc solid-phase peptide synthesis; Fmoc-Rink amide resin; DIC/HOBt
Settings: whole synthesis, scale 0.05 mmol

Row | Substance | final HPLC purity
1 | Tyr-Aib-Glu-Gly-Thr-Phe-Ile-Ser-Asp-Tyr-Ser-Ile-Ala-Met-Asp-Lys-Ile-His-Gln-Gln-Asp-Phe-Val-Asn-Trp-Leu-Leu-Ala-Gln-Cys(NH2) | more than 90%
2 | Tyr-Aib-Glu-Gly-Thr-Phe-Thr-Ser-Asp-Tyr-Ser-Ile-Tyr-Met-Glu-Lys-Glu-Ala-Val-Arg-Glu-Phe-Ile-Ala-Trp-Leu-Val-Lys(3-Maleimidopropionic acyl)-Gly(NH2) | more than 90%
